# Reference: the supplement of paper PMC4962491
# Counter-ions that a name gives are not always drawn. ± gives the standard deviation of the averaged measurements. The list shows a part of the results, in another mix than the full data. This data set is noisy: repeats of one test often differ as much as different tests do.
# Tested on: FaDu
# Test: mitochondrial oxygen consumption rate normalised to cell number, Z score over the library; higher = higher oxygen consumption (negative = OCR reduction)
# Details: treatment time 24 h, assay medium: 5 mM galactose, 5 mM pyruvate, 4 mM glutamine
# Procedure: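 Primary screen: FaDu cells were incubated 24 h with Pharmakon 1600 / TDI oncology set compounds at 2 or 10 uM. Mitochondrial-specific OCR (basal minus 2 uM antimycin A) was measured on a Seahorse XF96 in assay medium with 5 mM galactose, 5 mM pyruvate and 4 mM glutamine, then corrected for Hoechst cell number and expressed as a Z score […]. Compounds that cut cell number by >66% were excluded. Two repeats.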
SMILES,mitochondrial oxygen consumption rate normalised (2 µM),mitochondrial oxygen consumption rate normalised (10 µM)
c1ccc2c(CC3=NCCN3)cccc2c1,0.686 ± 0.095,–
CCN(CC)CC(=O)Nc1c(C)cccc1C,0.379 ± 0.18,–
CC(=O)CC(c1ccccc1)c1c(O)c2ccccc2oc1=O (centres undefined),0.748 ± 0.072,–
NS(=O)(=O)c1cc2c(cc1Cl)NC(C1CC3C=CC1C3)NS2(=O)=O (centres undefined),-0.373 ± 0.54,–
O=C1NS(=O)(=O)c2ccccc21,-0.52 ± 1,–
O=c1oc2c(O)c(O)cc3c(=O)oc4c(O)c(O)cc1c4c23,-1.64 ± 1.5,–
Oc1c(Cl)cc(Cl)c(Cl)c1Cc1c(O)c(Cl)cc(Cl)c1Cl,-3.27 ± 0.72,-6.031 ± 0.028
Cc1c(N(C)C)c(=O)n(-c2ccccc2)n1C,-0.32 ± 0.093,–
CCOC(=O)C1=C(COCCN)NC(C)=C(C(=O)OC)C1c1ccccc1Cl (centres undefined),-0.327 ± 0.78,–
CCN(CC)CCNC(=O)c1c(C)[nH]c(/C=C2\C(=O)Nc3ccc(F)cc32)c1C [Sunitinib Malate],0.376 ± 0.31,-0.335 ± 0.17
COc1ccc(/C=C/C(=O)Nc2ccccc2C(=O)O)cc1OC,0.915 ± 0.035,–
Cc1cccc(C)c1OCC(C)N (centres undefined),0.192 ± 0.88,–
O=C(CCCCCCCC(=O)NCCO)NCCO,-0.904 ± 0.4,–
CN1[C@@H]2CC[C@H]1C[C@@H](OC(=O)c1c[nH]c3ccccc13)C2,-3.09 ± 2,–
CC(=O)[C@H]1CC[C@H]2[C@@H]3C=CC4=CC(=O)CC[C@@]4(C)[C@@H]3CC[C@]12C,-0.00235 ± 0.59,–
Cc1cc(=O)[nH]c(=S)[nH]1,-1.41 ± 1,–
COc1ccccc1OCC(O)CO (centres undefined),-0.69 ± 0.67,–
CC[C@]1(O)C[C@H]2CN(CCc3c([nH]c4ccccc34)[C@@](C(=O)OC)(c3cc4c(cc3OC)N(C=O)[C@H]3[C@@](O)(C(=O)OC)[C@H](OC(C)=O)[C@]5(CC)C=CCN6CC[C@]43[C@@H]65)C2)C1 [Vincristine Sulfate],0.678 ± 0.53,–
CC[C@]1(O)C[C@H]2CN(CCc3c([nH]c4ccccc34)[C@@](C(=O)OC)(c3cc4c(cc3OC)N(C=O)[C@H]3[C@@](O)(C(=O)OC)[C@H](OC(C)=O)[C@]5(CC)C=CCN6CC[C@]43[C@@H]65)C2)C1,0.448 ± 0.25,–
NC[C@@H]1O[C@H](O[C@H]2[C@@H](O)[C@H](O[C@@H]3[C@@H](O)[C@H](N)C[C@H](N)[C@H]3O[C@H]3O[C@H](CO)[C@@H](O)[C@H](O)[C@H]3N)O[C@@H]2CO)[C@H](N)[C@@H](O)[C@@H]1O,0.884 ± 0.16,–
COc1cc2c(N3CCN(C(=O)Nc4ccc(OC(C)C)cc4)CC3)ncnc2cc1OCCCN1CCCCC1,0.932 ± 1.6,–
CC(C(=O)O)c1ccc(-c2ccccc2)c(F)c1 (centres undefined),-0.985 ± 0.56,–
O=C(OCC(O)CO)c1ccccc1Nc1ccnc2cc(Cl)ccc12 (centres undefined),-0.0365 ± 0.92,–
Cc1c(OCC(F)(F)F)ccnc1C[S@@+]([O-])c1nc2ccccc2[nH]1,0.509 ± 0.26,–
CN(C)C(=O)C(CCN1CCC(O)(c2ccc(Cl)cc2)CC1)(c1ccccc1)c1ccccc1,-1.38 ± 0.13,–

SMILES,mitochondrial oxygen consumption rate normalised (2 µM),mitochondrial oxygen consumption rate normalised (10 µM)
CC(=O)C1C(=O)C=C(C)OC1=O (centres undefined),0.646 ± 0.39,–
Nc1nc2[nH]cnc2c(=S)[nH]1,-1.61 ± 0.025,-2.58 ± 0.18
Nc1nc2[nH]cnc2c(=S)[nH]1 [Thioguanine],0.0792 ± 0.94,0.0465 ± 0.27
O=C1c2c(O)cccc2C([C@@H]2O[C@H](CO)[C@@H](O)[C@H](O)[C@H]2O)c2cc(CO)cc(O)c21 (some centres undefined),1.54 ± 2.8,–
Cc1cccc(C)c1NC(=O)C(C)N (centres undefined),0.412 ± 1.1,–
CO/N=C(\C(=O)N[C@@H]1C(=O)N2C(C(=O)O)=C(CSc3nnnn3C)CS[C@H]12)c1csc(N)n1,0.547 ± 0.28,–
CC(C(=O)O)c1ccc2c(c1)[nH]c1ccc(Cl)cc12 (centres undefined),0.118 ± 0.67,–
CCOC(=O)O[C@]1(C(=O)COC(=O)CC)CC[C@H]2[C@@H]3CCC4=CC(=O)C=C[C@]4(C)[C@H]3[C@@H](O)C[C@@]21C,-0.189 ± 1.3,–
O=C(O)c1cc(/N=N/c2ccc(O)c(C(=O)O)c2)ccc1O,-1.41 ± 0.16,–
COc1ccc2c(c1OC)C(=O)O[C@@H]2[C@H]1c2c(cc3c(c2OC)OCO3)CCN1C,0.497 ± 0.3,–
CC(=O)NCCCS(=O)(=O)O,0.0258 ± 0.28,–
C=C1c2c(Cl)ccc(O)c2C(=O)C2=C(O)[C@]3(O)C(=O)C(C(N)=O)=C(O)[C@@H](N(C)C)[C@@H]3[C@@H](O)[C@H]12.O=C(O)c1cc(S(=O)(=O)O)ccc1O,0.605 ± 0.29,–
CC(C)(C)NCC(O)COc1cccc2c1CCC(=O)N2 (centres undefined),0.219 ± 0.2,–
COc1ccc2c(c1)c(CC(=O)O)c(C)n2C(=O)c1ccc(Cl)cc1,-1.61 ± 1.9,–
CN1CCC(=C2c3ccccc3CCc3cccnc32)CC1,-0.554 ± 0.057,–
OC[C@H]1O[C@H](O[C@]2(CCl)O[C@H](CCl)[C@@H](O)[C@@H]2O)[C@H](O)[C@@H](O)[C@H]1Cl,0.484 ± 0.55,–
O=C(C1CCCCC1)N1CC(=O)N2CCc3ccccc3C2C1 (centres undefined),0.0217 ± 0.33,–
CC(C)(C#N)c1cc(Cn2cncn2)cc(C(C)(C)C#N)c1 [Anastrozole],0.686 ± 0.088,–
Oc1c(I)cc(Cl)c2cccnc12,0.642 ± 0.069,–
CN(C)CCOC(C)(c1ccccc1)c1ccccn1 (centres undefined),-0.975 ± 0.29,–
C=CCNC(N)=S,0.478 ± 1.5,–
CC(=O)c1ccc2c(c1)N(CCCN(C)C)c1ccccc1S2,-0.211 ± 0.39,–
Nc1ccn([C@H]2CC[C@@H](CO)O2)c(=O)n1,0.894 ± 0.32,–
CN(C(=O)C(Cl)Cl)c1ccc(OC(=O)c2ccco2)cc1,-0.0678 ± 0.63,–
COc1cc(/C=C/C(N)=O)cc(OC)c1OC,-0.512 ± 0.73,–

# An excerpt of the results above, as a working copy:
SMILES,mitochondrial oxygen consumption rate normalised (2 µM),mitochondrial oxygen consumption rate normalised (10 µM)
COc1ccc(/C=C/C(=O)Nc2ccccc2C(=O)O)cc1OC,0.915 ± 0.035,–
Cc1cccc(C)c1OCC(C)N (centres undefined),0.192 ± 0.88,–
O=C(CCCCCCCC(=O)NCCO)NCCO,-0.904 ± 0.4,–
CN1[C@@H]2CC[C@H]1C[C@@H](OC(=O)c1c[nH]c3ccccc13)C2,-3.09 ± 2,–
